# Experimental data as given in patent US20160022699A1, “COMBINATIONS AND METHODS FOR TREATING NON AGE-RELATED HEARING IMPAIRMENT IN A SUBJECT” (Washington University, priority 2012, published 2016).
# For at least one compound, name, drawing or mass did not settle the structure.
# Key:
# [1] = tested on: noise-induced hearing loss (NIHL) in C57BL/6J mice; test: NIHL treatment protocol: drug i.p. 24 hours after white noise (110 dB SPL, 30 min), ABR threshold shifts; details: 24 hours after noise
# [2] = tested on: noise-induced hearing loss (NIHL) in C57BL/6J mice; test: NIHL prevention protocol: drug i.p. two hours before white noise (110 dB SPL, 30 min), ABR thresholds / threshold shifts two weeks after noise; details: for drug effect on ABR threshold shift (two-way ANOVA), prevention: all dosages
# NIHL in rats = details: 1 mg/kg; cited from earlier work
# NIHL in mice = details: cited from earlier work
SMILES,"drug effect on ABR threshold shift (two-way ANOVA), treatment [1]","gender effect on ABR threshold shift (two-way ANOVA), treatment [1]",dosage dependence of NIHL prevention [2],"gender effect on ABR threshold shift (two-way ANOVA), prevention [2]","drug effect on ABR threshold shift (two-way ANOVA), prevention [2]",protective effect against NIHL (NIHL in rats),therapeutic effect against NIHL ([1]; 60 mg/kg),therapeutic effect against NIHL (NIHL in mice; 30 mg/kg),protective effect against NIHL (NIHL in mice; from 10 to 100 mg/kg)
C[C@@H]1C[C@H]2[C@@H]3CCC4=CC(=O)C=C[C@]4(C)[C@@]3(F)[C@@H](O)C[C@]2(C)[C@@]1(O)C(=O)CO [dexamethasone],statistically significant drug effects,the gender had no effects,a dose-dependent PTS reduction was still present,the gender had no effects as well,no statistically significant drug effects,no protective effects,–,–,–
C[C@H]1C[C@@H]2[C@H]([C@@H](O)C[C@@]3(C)[C@H]2CC[C@]3(O)C(=O)CO)[C@@]2(C)C=CC(=O)C=C12 [methylprednisolone],statistically significant drug effects,the gender had no effects,–,the gender had no effects,statistically significant drug effects,–,therapeutic effects,present only if it was administrated within three hours after the noise exposure,protective effects
